This note sets out measurements from article doi:10.1101/2020.09.21.306522.

Amino acid sequences for entries named in this document (tags omitted).
UniProt Q9ULV4: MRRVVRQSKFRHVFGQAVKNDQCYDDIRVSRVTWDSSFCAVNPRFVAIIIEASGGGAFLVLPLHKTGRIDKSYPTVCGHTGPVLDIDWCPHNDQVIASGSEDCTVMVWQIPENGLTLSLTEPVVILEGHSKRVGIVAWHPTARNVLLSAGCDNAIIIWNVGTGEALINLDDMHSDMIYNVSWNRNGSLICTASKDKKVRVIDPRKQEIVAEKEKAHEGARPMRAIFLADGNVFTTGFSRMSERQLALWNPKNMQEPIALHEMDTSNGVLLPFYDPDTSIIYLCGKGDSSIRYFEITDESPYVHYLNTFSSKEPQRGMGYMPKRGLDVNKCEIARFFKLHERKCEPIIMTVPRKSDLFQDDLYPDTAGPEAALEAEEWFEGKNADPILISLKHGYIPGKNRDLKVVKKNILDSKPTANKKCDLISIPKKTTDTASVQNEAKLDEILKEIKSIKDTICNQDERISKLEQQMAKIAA

This experiment has as its target T1, GFP-tagged MICAL1 (human) (UniProt Q8TDZ2).
T1 sequence: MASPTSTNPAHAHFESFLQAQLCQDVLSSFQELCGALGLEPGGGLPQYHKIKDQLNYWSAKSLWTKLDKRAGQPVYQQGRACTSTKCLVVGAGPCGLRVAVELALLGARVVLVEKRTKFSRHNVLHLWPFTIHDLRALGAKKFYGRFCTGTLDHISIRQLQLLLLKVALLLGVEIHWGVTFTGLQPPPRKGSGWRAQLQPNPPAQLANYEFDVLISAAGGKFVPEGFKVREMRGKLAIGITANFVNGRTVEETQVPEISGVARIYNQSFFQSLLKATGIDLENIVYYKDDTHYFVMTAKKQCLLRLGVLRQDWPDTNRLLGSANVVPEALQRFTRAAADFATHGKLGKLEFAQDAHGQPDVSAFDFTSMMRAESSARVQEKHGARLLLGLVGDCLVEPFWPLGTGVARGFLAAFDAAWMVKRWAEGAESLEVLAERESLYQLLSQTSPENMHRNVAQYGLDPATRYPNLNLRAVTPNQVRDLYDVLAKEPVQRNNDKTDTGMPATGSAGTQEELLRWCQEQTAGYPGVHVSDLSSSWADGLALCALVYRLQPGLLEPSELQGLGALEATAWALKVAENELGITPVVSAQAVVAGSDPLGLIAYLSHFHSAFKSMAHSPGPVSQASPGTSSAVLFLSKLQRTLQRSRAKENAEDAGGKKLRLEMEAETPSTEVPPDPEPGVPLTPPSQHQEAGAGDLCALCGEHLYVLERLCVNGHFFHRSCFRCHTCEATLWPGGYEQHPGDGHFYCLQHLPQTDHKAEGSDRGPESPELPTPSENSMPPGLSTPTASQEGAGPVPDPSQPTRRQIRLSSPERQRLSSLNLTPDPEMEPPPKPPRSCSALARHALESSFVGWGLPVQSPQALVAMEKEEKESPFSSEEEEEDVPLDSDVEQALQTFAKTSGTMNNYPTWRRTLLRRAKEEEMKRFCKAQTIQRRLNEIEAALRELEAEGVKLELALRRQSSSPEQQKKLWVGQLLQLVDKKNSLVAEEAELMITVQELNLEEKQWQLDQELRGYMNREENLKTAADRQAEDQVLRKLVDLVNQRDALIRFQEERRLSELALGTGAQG
Briefly: co-IP.

These are yes or no findings as the source states them, for the method shown. Binding seen in cells or lysates may run through a third protein. Where a sequence is shown, tags or fusion partners need not be part of it.

Regarding coronin-1C (from UniProt Q9ULV4 1-474), the binding result is on record as “no binding”.
